## Library screening results

Data taken from ChEMBL document CHEMBL3988442, “University of Dundee, Small-Polar-MMV Screening Library” (2021).

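Whole-cell assay for inhibitors of Mycobacterium tuberculosis growth, labelled Cornell in the record; the read-out is not stated. The concentration is filed as 10 mM, unlikely as a test dose, so the dose is not known. Higher means stronger inhibition (inferred from two other growth screens of the library). About 53,000 compounds were tested under these conditions; 1.7% (about 900) showed 50% or more at least once.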

Values are the deposited “Percent Effect”, in %.
The record does not define 0% and 100%; most values in the screen are far below 50% and negative numbers occur (in some assays of this library far below -100).
The compounds are a random part of those screened.

structure,Percent Effect
Cc1nc(C)c(C(=O)N2CCCC2c2nnc3n2CCCCC3)s1 (stereo not drawn),13.16%
COc1ccc2c(c1)CCCN(C(C)C(=O)N1CCCC1)C2 (stereo not drawn),7.078%
[H][C@@]12CCCO[C@]1([H])[C@H](n1cccn1)CN2Cc1nccs1,-45.45%
CN(CC(N)=O)C(=O)c1cc(Cl)c(Cl)n1C,18.08%
Cc1cc(CN2CCC(O)(Cn3ccc4ncccc43)CC2)c(C)s1,38.7%
CS(=O)(=O)CCn1ccc(NC(=O)Cc2ccccc2Cl)n1,13.91%
NC(=O)C1(c2cnccn2)CCCN1Cc1ccccn1 (stereo not drawn),6.043%
Cc1ccc2[nH]nc(C(=O)NCC3CCN(Cc4c[nH]cn4)C3)c2c1 (stereo not drawn),-12.55%
Cc1ccc(CN2CC(C(=O)N3CCCC3)C3(CCOCC3)C2)s1.O=C(O)C(F)(F)F (stereo not drawn),21.92%
O=C1COc2ccc(C(=O)NS(=O)(=O)c3cc(F)ccc3F)cc2N1,-17.29%
Cc1cc(N2CCCC2c2cccnc2)nc(C)n1 (stereo not drawn),-6.131%
CN(c1ccc(C#N)cn1)C1CCCN(Cc2noc(C3CC3)n2)C1 (stereo not drawn),17.71%
Cc1cn2c(n1)C(CNCc1cnn3ccccc13)CCC2 (stereo not drawn),12.95%
CCCN(Cc1nccn1C)C(=O)c1cc(C(C)C)on1,6.845%
Cn1ccc(CN2CCC3(CC2)CC(Nc2ccccn2)CO3)n1.O=C(O)C(F)(F)F (stereo not drawn),22.97%
COC(=O)C(c1cc(F)ccc1F)N(C)C(=O)c1cnccn1 (stereo not drawn),-38.74%
Cc1cc(C2CCCN(Cc3ncc(C)o3)C2)n[nH]1 (stereo not drawn),19.9%
Cc1nn(C)c(N(C)C)c1CNCc1ccnn1C,46.97%
COc1ccc(C(=O)NCc2ccon2)cc1F,6.478%
Cc1ncc(CN2CCc3nc4cc(C(C)(C)C)nn4c(O)c3C2)n1C,2.838%
Cc1ccc(C)c(S(=O)(=O)CCN2CCCC2Cn2cccn2)c1 (stereo not drawn),17.44%
Fc1ccc(N2CCCN(Cc3ccc(-c4cc[nH]n4)o3)CC2)cc1,-4.787%
c1cc(CNCc2ccnc(N3CCOCC3)c2)c2c(c1)OCCCO2,9.822%
NC(=O)c1c(NC(=O)CCC(=O)O)sc2c1CCc1ccccc1-2,-38.85%
O=C(O)c1cnc(N2CCC(c3nccn3CC3CC3)CC2)c(Cl)c1,-63.55%
CCc1noc(C)c1C(=O)NCCCC(CC)(CC)C1OCCO1,-10.54%
CNC(=O)C1CCCN(C(=O)c2cncs2)C1 (stereo not drawn),43.16%
CC(C)[C@@H]1CN(CCOc2ccccc2)C[C@H]1NS(=O)(=O)N(C)C,33.61%
CCc1ccsc1C(=O)NC(C#N)CC(C)C (stereo not drawn),-3.442%
COCCn1cc(-c2cc(C(=O)N3CCCC3)c3ccccn23)nc1C,-15.6%
CCN1N=C(C(=O)N2CCCC(c3nc(C)c(C)s3)C2)CCC1=O (stereo not drawn),-28.99%
CC1(NC(=O)Cc2csc(C(C)(C)C)n2)CCS(=O)(=O)C1 (stereo not drawn),-18.46%
Cc1cccc(CNC(Cc2ccsc2)c2nc(C)c(C)s2)n1.Cl (stereo not drawn),47.96%
Cc1nn(C)c2c(NCc3ccccn3)nc(C(C)C)nc12,-30.45%
[H][C@]12CC[C@@]3(N=C(C)NC3=O)[C@@]1([H])CN(C(=O)NCc1ccccc1C)C2,15.83%
CCC(=O)N1CCCC1(C)c1nc(C)no1 (stereo not drawn),13.55%
O=C(c1cccc2c1OCCO2)N1CCCC1Cn1cccn1 (stereo not drawn),-26.37%
Cc1cc(C)nc(N2CCCC2c2cccnc2)n1 (stereo not drawn),5.862%
Cc1ccc(C(=O)N2CCC3(CCN(c4ccsc4)C3=O)C2)cn1.O=C(O)C(F)(F)F (stereo not drawn),-18.15%
COc1cccc2c1ccn2CC(=O)Nc1nc[nH]n1,6.877%
Cc1noc(C)c1C(=O)N1CCCN(C)c2ccc(Cl)cc21,5.375%
CN(C)c1cc(C(=O)NCC2(c3cccc(F)c3)CCOCC2)ccn1,-0.6711%
CC(=O)N1CCN(c2nc(C(F)(F)F)nc3sc(C)c(C)c23)CC1,9.203%
Cc1ncnc(N2CCCN(c3nc4ccccc4s3)CC2)c1C,42.84%
O=C(O)C(F)(F)F.[H][C@@]12COC[C@]1(CNC(=O)CC1CC1)CN(c1ncccn1)C2,0.6787%
CCC1CN(C(=O)c2ccc(=O)[nH]c2)CCC(=O)N1Cc1ccccc1 (stereo not drawn),-8.884%
O=C(O)C(F)(F)F.[H][C@@]12CN(CC3CC3)C[C@]1([H])[C@H](OC)CCN2C(=O)c1ccsc1,8.611%
C[C@@H](O)CNC(=O)c1nc(Cc2c(Cl)cccc2Cl)no1,33.25%
CCN(Cc1nc(C)no1)C(=O)C1CC(=O)N(Cc2ccccn2)C1 (stereo not drawn),0.6142%
CCCNC(=O)c1cc(OC)c(OC)cc1N(C)S(C)(=O)=O,-20.28%
O=C(CC1=CCCCC1)NCc1ccnc(OC2CCOCC2)c1,2.015%
CCCC(C)NC1CCN(c2ccc(-n3ccnc3C)cc2)CC1 (stereo not drawn),0.04574%
CN(CC(=O)NC1(C#N)CCCC1)C1CCCN(c2cccnn2)C1 (stereo not drawn),26.64%
CC(c1cccc(-c2ncccc2F)c1)N(C)C (stereo not drawn),14.81%
O=C(CSCC1CC1)N1CCCC(c2nccn2Cc2ccccn2)C1 (stereo not drawn),-1.991%
Cc1ccccc1C(O)CNS(=O)(=O)Cc1cccc(C#N)c1 (stereo not drawn),6.803%
Cc1cccc(CN(Cc2ccc(C)o2)C2CC(C)(C)NC(C)(C)C2)n1.O=C(O)CC(O)(CC(=O)O)C(=O)O,13.98%
[H][C@]12CC[C@]([H])(CN(S(=O)(=O)N(CC)CC)C1)N(Cc1cscn1)C2=O,3.716%
O=C(CCNc1ncccn1)N1CCCC(n2cccn2)C1 (stereo not drawn),-2.324%
Cc1nc(C)c2c(n1)CCN(Cc1ccco1)CC2,-0.9283%
CCCc1cc(=O)n(CC(N)=O)c(-n2nc(C)cc2C)n1,7.497%
Cc1cnc(N2CCc3ncnc(N4CCN(C)CC4)c3CC2)nc1.O=C(O)C(F)(F)F,-1.303%
CN1CCN(C2CCN(CCOc3cccc(Cl)c3)CC2)C1=O,-19.39%
CCOCC1CC2(CCN(C(=O)c3ccccc3F)CC2)CO1 (stereo not drawn),12.3%
CCc1c(C(=O)Nc2ccc(F)c(C(=O)NC)c2)cnn1CC(C)C,23.68%
COC(=O)c1c(Cl)c(C2CC2)nc2onc(C)c12,10.81%
O=C(Nc1cc(F)ccc1OCC1CCCO1)c1ccoc1 (stereo not drawn),-20.61%
OCc1c(Cl)ncn1-c1ccc(F)cc1,15.12%
Cc1cc(CC(C)Nc2ncc(C)c(N(C)C)n2)[nH]n1 (stereo not drawn),-14.68%
Cc1nc(NC2CCCC2)cc(C2CCN2C(=O)c2ccccc2)n1 (stereo not drawn),-12.86%
COC(=O)c1ccoc1CN(C)CC(=O)NC1CCS(=O)(=O)C1 (stereo not drawn),-2.719%
OCCn1nnnc1Cc1ccc(Br)cc1,32.76%
O=C1Nc2ccccc2/C1=C1\CCCCCN1,-23.51%
COCCN1CCC2(CCC(=O)N2Cc2csc(C)n2)CC1.O=C(O)C(F)(F)F.O=C(O)C(F)(F)F,35.74%
CN(CC(=O)c1ccc2[nH]c(=O)[nH]c2c1)Cc1ccc2c(c1)OCO2,-3.135%

Some entries from above, unchanged:

Result for CCC(=O)N1CCCC1(C)c1nc(C)no1 (stereo not drawn) was 13.55%.
Result for CCc1ccsc1C(=O)NC(C#N)CC(C)C (stereo not drawn) was -3.442%.
Result for Cc1ncnc(N2CCCN(c3nc4ccccc4s3)CC2)c1C was 42.84%.
Result for Cc1cc(C)nc(N2CCCC2c2cccnc2)n1 (stereo not drawn) was 5.862%.
Result for COC(=O)c1c(Cl)c(C2CC2)nc2onc(C)c12 was 10.81%.
Result for Cc1ccc(CN2CC(C(=O)N3CCCC3)C3(CCOCC3)C2)s1.O=C(O)C(F)(F)F (stereo not drawn) was 21.92%.
Result for OCCn1nnnc1Cc1ccc(Br)cc1 was 32.76%.
Result for O=C(O)C(F)(F)F.[H][C@@]12COC[C@]1(CNC(=O)CC1CC1)CN(c1ncccn1)C2 was 0.6787%.